PubChem BioAssay AID504774 – Drosophila RNAi Screening Center, 2011
In all, the deposit lists about 23,000 reagents; below is a random part of those that have a named target and a result. 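Values are quantile-normalised luminescence on an arbitrary scale; higher means more cells surviving MMS.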 The numbers tell different reagents against one gene apart. Names joined by + are all predicted targets of the reagent. Not all columns of the deposit are shown. No sequences are given here.

- Aim: 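Knock-downs that shift viability of MMS-exposed cells relative to untreated ones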 (primary screen)
- System: Drosophila Kc167 cells
- Reagents: long dsRNA against Drosophila genes, about 0.25 µg dsRNA per well
- Timing: about 6 days: 3 days knock-down, then 3 days with or without MMS
- Treatment: methyl methanesulphonate 0.004% (w/v) for 3 days after knock-down
- Detection: 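ATP-dependent luminescence as a measure of live cells in MMS-exposed wells, quantile normalised within each plate, with replicate values also given as a mean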
- Reading the numbers: mean viability with MMS: higher = more surviving cells after MMS

Which result is listed for CG13137?
mean viability with MMS: 3.57e6

Which result is listed for CG7924?
mean viability with MMS: 3.71e6

What did the screen give for Teh3 (tipE homolog 3)?
mean viability with MMS: 3.47e6

For dx (deltex), how do the results read?
mean viability with MMS: 3.65e6

How did the screen score CG9416?
mean viability with MMS: 3.71e6

With CG40005 (retired record) + cta, what does the deposit list?
mean viability with MMS: 3.61e6

What is on record for CG12012?
mean viability with MMS: 3.60e6

With CG2712, what does the deposit list?
mean viability with MMS: 3.59e6

For CG13850, how do the results read?
mean viability with MMS: 3.61e6

What did the screen give for CG14693?
mean viability with MMS: 3.52e6

How did the screen score CG13455?
mean viability with MMS: 3.49e6

How did the screen score CR32028 (retired record)?
mean viability with MMS: 3.57e6

What is on record for janB (janus B)?
mean viability with MMS: 3.49e6

For Ucp4C (Uncoupling protein 4C), how do the results read?
mean viability with MMS: 3.61e6

With CG13713, what was measured?
mean viability with MMS: 3.59e6

With CG8814, how do the results read?
mean viability with MMS: 3.72e6

For Tsp42Er (Tetraspanin 42Er), how do the results read?
mean viability with MMS: 3.72e6

How did the screen score CG5863?
mean viability with MMS: 3.53e6

How did the screen score CG18641?
mean viability with MMS: 3.43e6

How did the screen score CG12377 (retired record) #1?
mean viability with MMS: 3.30e6

With CG12377 (retired record) #2, what was measured?
mean viability with MMS: 3.28e6

With rush (rush hour), what does the deposit list?
mean viability with MMS: 3.53e6

For alphaTub84D (alpha-Tubulin at 84D), what was measured?
mean viability with MMS: 3.37e6

Which result is listed for CG6209?
mean viability with MMS: 3.61e6

What did the screen give for HINT1 (histidine triad nucleotide binding protein 1)?
mean viability with MMS: 3.43e6

Which result is listed for CG14275?
mean viability with MMS: 3.55e6

What is on record for Hsc70-1 (Heat shock protein 70 cognate 1)?
mean viability with MMS: 3.22e6

What is on record for COX5A (Cytochrome c oxidase subunit 5A)?
mean viability with MMS: 3.33e6

For Dnai2 (dynein, axonemal, intermediate chain 2), how do the results read?
mean viability with MMS: 3.62e6

With Zif (Zinc-finger protein), how do the results read?
mean viability with MMS: 3.42e6

How did the screen score Ltn1 (Listerin E3 ubiquitin protein ligase 1) #1?
mean viability with MMS: 3.42e6

With Ltn1 (Listerin E3 ubiquitin protein ligase 1) #2, what does the deposit list?
mean viability with MMS: 3.74e6

What is on record for Rop (Ras opposite)?
mean viability with MMS: 3.59e6

What did the screen give for rgr (regular) #1?
mean viability with MMS: 3.60e6

Which result is listed for rgr (regular) #2?
mean viability with MMS: 3.61e6

Laid out differently: entries from further up.
gene | dsRNA no. | mean viability with MMS
Ucp4C (Uncoupling protein 4C) | 1 | 3.61e6
CG13713 | 1 | 3.59e6
CG8814 | 1 | 3.72e6
Tsp42Er (Tetraspanin 42Er) | 1 | 3.72e6
CG5863 | 1 | 3.53e6
CG18641 | 1 | 3.43e6
